Paper PMC5608759
These are yes or no findings as the source states them, for the method shown. In cells and extracts the contact can be indirect. Here binding means that the protein was enriched with, or labelled near, the bait; the list need not be complete.

Chains of the proteins cited; added tags and fusions are not shown.
UniProt P04150: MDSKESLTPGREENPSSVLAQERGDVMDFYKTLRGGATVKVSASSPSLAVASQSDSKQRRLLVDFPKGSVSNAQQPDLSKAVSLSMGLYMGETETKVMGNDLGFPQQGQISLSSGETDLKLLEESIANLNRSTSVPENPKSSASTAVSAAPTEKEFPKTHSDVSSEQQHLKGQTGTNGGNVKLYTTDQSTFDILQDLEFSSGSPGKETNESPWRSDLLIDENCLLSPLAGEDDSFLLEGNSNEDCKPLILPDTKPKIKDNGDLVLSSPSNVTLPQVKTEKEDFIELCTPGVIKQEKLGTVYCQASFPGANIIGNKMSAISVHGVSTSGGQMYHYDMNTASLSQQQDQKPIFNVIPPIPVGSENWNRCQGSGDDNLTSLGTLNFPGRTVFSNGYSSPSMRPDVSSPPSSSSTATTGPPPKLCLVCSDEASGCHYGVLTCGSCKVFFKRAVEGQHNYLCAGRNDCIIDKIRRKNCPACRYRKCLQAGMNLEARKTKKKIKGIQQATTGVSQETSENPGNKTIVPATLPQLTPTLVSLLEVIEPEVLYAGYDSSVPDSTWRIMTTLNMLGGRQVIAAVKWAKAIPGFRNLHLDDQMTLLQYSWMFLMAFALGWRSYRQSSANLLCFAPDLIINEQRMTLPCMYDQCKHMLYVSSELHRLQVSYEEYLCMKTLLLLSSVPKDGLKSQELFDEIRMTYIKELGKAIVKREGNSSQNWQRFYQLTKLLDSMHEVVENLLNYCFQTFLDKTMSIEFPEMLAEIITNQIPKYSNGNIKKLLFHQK

B1: hob3 (protein, UniProt Q9UUM7 1-264)
chain: MSWHGFKKAVNRAGTSVMMKTGHVERTVDREFETEERRYRTMESAAKKLQKEAKGYLDALRAMTASQTRIANTIDAFYGDAGSKDGVSAYYRQVVEDLDADTVKELDGPFRTTVLDPISRFCSYFPDINAAITKRNHKLLDHDAMRAKVQKLVDKPSNDTTKLPRTEKEAAMAKEVYETLNNQLVSELPQLIALRVPYLDPSFEALVKIQLRFCREGYEKMAQVQQYFDNSVREDYSNGLLDDKVEQVLQSMRDLSIAGLNNSQ
B2: hmt2 (protein, UniProt O94284 25-459)
chain: ASTHHKVLVVGGGSAGISVAHQIYNKFSKYRFANDQGKDTSLKPGEIGIVDGAKYHYYQPGWTLTGAGLSSVAKTRRELASLVPADKFKLHPEFVKSLHPRENKIVTQSGQEISYDYLVMAAGIYTDFGRIKGLTEALDDPNTPVVTIYSEKYADAVYPWIEKTKSGNAIFTQPSGVLKCAGAPQKIMWMAEDYWRRHKVRSNIDVSFYTGMPTLFSVKRYSDALLRQNEQLHRNVKINYKDELVEVKGSERKAVFKNLNDGSLFERPFDLLHAVPSMRSHEFIAKSDLADKSGFVAVDQSTTQSTKFPNVFAIGDCSGLPTSKTYAAITAQAPVMVHNLWSFVNGKNLTASYNGYTSCPLLTGYGKLILAEFLYKQEPKESFGRFSRFLDQTVPRRMFYHLKKDFFPFVYWNFAVRNGKWYGSRGLIPPHFPVN
B3: def1 (protein, UniProt O43024 1-963)
chain: MSENKKFRPKKVGNTEQVSEKQHTDTALNISQDNKTSSSSAKRGAKGRRGTKGKSGPANSSQTSNIEGSNALELEFDRDSQLSVLQELFPSWTIDDLSFALEEADRDLELTILHITEGHASKWGEVKKKPIPKTKSKPTSHAPVSDNVSSTFRNATRKSKKPSASKDTSRGVRKSKAGAPSDPSSVHAPSSLEKPAGTGDLPSSEISTKAPASTTVSSSVDPGTINEDSSMKDHTTSNEQASVLTSANTAASTNTNGTAGGTSASAKSTSAADQAVASSKPIKKAWASVAKSKKKVTPAPAPAPESEPSKPSIAPSQPSKTNVSAAYEKPAELSSSSVPFPHKSQDSATPANVETTPSTATSAPKKSTAPFAINAVKPAPGLSNISSASLPKPSFAKQAAVGSQSSTTSMTTARLLSDRFPVVMPVANTAAIPEKVQVRFGSLTLGGEDKKSTKSSSDNIAQSGPRSSYFPKKTVSPKPEAKKEASKVAESTKIPKKQHTSAYESRAPQSKVPENLKESHVNETPYRGLHDVNLPASGNASSVSAIPPQVSAQTTIPAASTSATSGPVVGKQSAGYGGIYSPATHGISPQPYAGASLIPPSTGAAFNNETASSNAGETTALPYSSRFMNPVENRSANSPFDNFQHIDHSTELGYASNTSQQYQQTSHPAYTTMSPIEYGQAAPAAHYYNERNQYSQYDNVAGSASNTPDVHSVMHNKVASSNATSLPAAGTATPSPVVSQQQPQPYAFPPMYPIPYVSYGYGTMPYNNNKFGQPQQGYMSQSGFNDFPPIFGGHSNVYNRQQPGNVSGMSGTQTSNPINNATANTSGMTEKAAGHRDSVIGNGGVTGANSMSSTLGGLSSMSGMGRAAPGMFMGNVGSFENLSANAASPYGLPPQQTPLTNAATQQTTSFQSNANKVNNANSQPAGFPFNSGASTNAGSNGLGGYNAYNQSFINRPGGWYGNA
B4: nap1 (protein, UniProt O59797 1-393)
chain: MVENVNINNKRAGKMSAAPTPHNTPSGTSAPNFGAKAPQVNTIDEGDENLEAIDGKLGSLLHLTSEGVSELPEAVQRRISGLRGLQKRYSDLESQFQKELFELEKAYAKKYAPIFKRRSEVVRGADEPTEEEIKKGEAADENEKKEPTSSESKKQEGGDDTKGIPEFWLTAMKNVLSLSEMITPEDEGALSHLVDIRISYMEKPGFKLEFEFAENPFFTNKILTKTYYYMEESGPSNVFLYDHAEGDKVDWKENADLTVRTVTKKQRNKNTKQTRVVKVSVPRDSFFNFFNPPTPPSEEDEESESPELDELLELDYQIGEDFKEKLIPRAVEWFTGEALALENYDGFSDLDVEEDEDDVESSSNEEVSDSDEEDSDSKHTAHGQQNAAECRQQ
B5: tom70 (protein, UniProt O14217 1-625)
chain: MSGISNAENGKAIVSSGVLNSVSAFVRRHRTFVYTIGAVAVFATVGGVYHVQQKKASHKRSKKLKAHQDKAESKVNEGKNEAAKVVKEEDLKSSETGKDVETAAAAAAAAKKKKKNKKKVKAKKVGDSSVDKIATEESVKSMTKEERAKLAAELKTLGNKAYGQKEYANAIDYYTQAITCSHDPIFFSNRAACYAAIGDFEQVIKDTSEALSLDSSYVKALNRRSAAYEQLGKLDEALMDSTVSCIFDGFANESMTATVERLLKKVAEKKSSALLKERPPKLPAASFIQTYLDSFHAQPKPLFDNKFDGDAALAEAYEYLEKGEYQLSYDKAKESCLGSFSSPSVNARTHNLVGTFKFVSGDSKGSMENFNAAIKLDRKFIQPYIRLSAAYLDENDNEKMWKVLNDAESVDKTDSDLYYHRAQVRFVSGEFAEAISDYQKSIALDDSFIYSHIQLGVAQYKTHAIAESMKTFEDCKKRFPNSSEVYNYFGEILLDQQKFDDAVKNFDHAIELEKREHLTIMSAMPLINKALAVFQWKKDISQAENLCRQALSADPECDIAIASMAQFLLQQGKAREALEYFEKSAQLARTESEMVNAFSYAEATRTQIALTEKYPQLVGRLSNPM
B6: rpl1702 (protein, UniProt O59794 1-187)
chain: MVRYSAAPALETKCAKARGAYLRTHFKNSREVAFTINGMNLKKAFIFLDNVKEHKQAVPFRRFNGGVGRTAQGKEFGVTQARWPVKSVNFFYDLLKNAEANAEAKGLDMDKLIIKHVQVNAAPKQRRRTYRAHGRVTAYLSSPSHIEIIVAEEEEAVPKANDTVSRVSLKQGAKARNLAARKAITSA
B7: rps1102 (protein, UniProt P0CT74 1-152)
chain: MATELVVQSERAFQKQPHIFQNAKKGAGRRWYKDVGLGFKTPAEAIYGEYVDKKCPFVGQVSIRGRILTGTVVSTKMHRTIIIRREYLHFIPKYNRYEKRHKNLAAHVSPAFRINEGDVVTVGQCRPLSKTVRFNVLRVVKHTEGPKQFGKF
B8: rpl901 (protein, UniProt Q10232 1-190)
chain: MGRDIYKDETLTIPKGVTVDIKARNVTVTGPRGTLKQNLRHVDIEMKKQGNTIKFIVWHGSRKHNACIRSVYSIINNMIIGVTQGFRYKMRLVYAHFPININLTENGTVVEIRNFLGERITRVIKCLPGVTVSISSAVKDEIILEGNSLENVSQSAANIKQICNVRNKDIRKFLDGIYVSERGNIEELEE
B9: eno101 (protein, UniProt P40370 1-439)
chain: MAIQKVFARQIYDSRGNPTVEVDLTTETGIHRAIVPSGASTGIWEALEMRDGDKTKWGGKGVLKAVGNVNNIIAPAVVKANLDVTDQKAADEFLLKLDGTENKSKLGANAILGVSMAICRAGAAQKKLPLWKYIAENFGTKGPYVLPVPSFNVLNGGSHAGGDLAFQEFMILPTGAPSFSEAMRWGAETYHTLKSIAKKRYGSSAGNVGDEGGIAPDLQTPQEALDLIVEAINKAGYEGKIKIGLDVASSEFYVDGKYDLDIKAAKPKPENKLTYQQLTDLYVELSKKYPIVSIEDPFDQDDWSAWTHMKAETDFQIVGDDLTVTNVKRLRTAIDKKCANALLLKVNQIGSVTESLNAVRMSYEAGWGVMVSHRSGETADTFISHLTVGIGAGQLKSGAPCRSERLAKYNELLRIEEELGSEGVYAGAHAGKYIKAAKF
B10: zuotin homolog of DNAJ chaperone protein (protein, UniProt Q9Y7I8 1-442)
chain: MSAGDSIQLFPPTTKQAIEASFVPHGKISPLIKRAVEPVGPLFLAHARRQRHGRTFSEDERLEVKNKVQEEVKEESEDEEEDPAMLRADPKEWKQQDHYAVLGLSKYRYKADTEQIKKAHLKKVLKHHPDKKAASGNINDDSFFKCIQKAYEILSDPVRRRQFDSVDENADVEPPESTTKETFFELWTPVFESEARFSKKQPVPSLGTIESTRAEVDNFYNFWYNFDSWRSFEYLDKDIPDDGESRDNKRFQEKKNRSERQKNKARDNARLRNLVDTALASDPRIKLFKEQEKAAKAARKWEREAGAREAAAAAQKKKEEEERRAAEEAAAKASAAAANKKAKEDKKKAQKRDKKVVKNALKDFNYFSATDVPSAEHVDSVLKDVDVIMSKLGEGELGQLAADINAEKAAGAASVQAVFDKFAKMFIERGSMSSADVVFFAQ
B11: tdh1 (protein, UniProt P78958 1-336)
chain: MAIPKVGINGFGRIGRIVLRNALVAKTIQVVAINDPFIDLEYMAYMFKYDSTHGRFDGSVEIKDGKLVIDGNAIDVHNERDPADIKWSTSGADYVIESTGVFTTQETASAHLKGGAKRVIISAPSKDAPMYVVGVNEEKFNPSEKVISNASCTTNCLAPLAKVINDTFGIEEGLMTTVHATTATQKTVDGPSKKDWRGGRGASANIIPSSTGAAKAVGKVIPALNGKLTGMAFRVPTPDVSVVDLTVKLAKPTNYEDIKAAIKAASEGPMKGVLGYTEDAVVSTDFCGDNHSSIFDASAGIQLSPQFVKLVSWYDNEWGYSRRVVDLVAYTAAKDN
B12: rpl501 (protein, UniProt P52822 1-294)
chain: MPFIKAVKSSPYFSRYQTKYRRRREGKTDYYARKRLIAQAKNKYNAPKYRLVVRFSNRFVTCQIVSSRVNGDYVLAHAHSSELPRYGIKWGLANWTAAYATGLLVARRALAKVGLADKYEGVTEPEGEFELTEAIEDGPRPFKVFLDVGLKRTSTGSRVFGAMKGASDGGLFIPHSPNRFPGFDIETEELDDETLRKYIYGGHVAEYMEMLIDDDEERYQKQFSGLIADGIESDQLEDIYAEAYAKIREDPSFQKSGKDAAAFKAESLKHTQRKLTAEERKERFNAKVIEAGRA
B13: psu1 (protein, UniProt Q9UR09 19-417)
chain: APFRHPHHLLNKRDVSVVTSKVYAYTTVTLEAAASAISTNGAAKEAATAAGDAETTSSVAASVTPAASSSVAASVTPVASSSVAASVTPVSSSAVVDSATSAAASSSVIPTSSSVVASSSEVASSTTSSAAASATSTGSSSGGFQDGVYDCTDFPSDQSGVVALDYLGYGGYSGIQIGDGAGSSCVEGAYCSYACSPGMLKTQWPSTQPSDGETRGGLLCKGGKLYRTNTAYDNLCENGVGTASVQNTLGQGVAICQTDYPGSENMVIPTYVGGGATSPLSVTDNANYFQWEGKGTSAQYYVNKAGYTAEQGCQWGTSSGDYGNWSPLVFGAGMTDGTTWLSISQNPLTSQLANYNVKIVGADGASVSGTCVFENGAFQNGGSGCTVGITSGSGVFVFY
B14: fba1 (protein, UniProt P36580 1-358)
chain: MGILDIVPTGVITGDNVLKLFTYAREHGFAIPAINVTSSSTAIAALEAAREARSPIILQTSNGGAHFFAGKESSNEGQKASIAGSIAAAHYIRSIAPFFGVPVVMHSDHCAKKLLPWMDGMFEADEAYFKIHGEPLFSSHMLDLSEEPKKENIAQVKEYCKRAVPMKIWIEMEIGITGGEEDGVDNSHVSHTELYTQPEDIWDVYRELSSVTPYFSIAAAFGNVHGVYKPGNVKLQPALLGQHQAYVKEQLKTTNDKPVFFVFHGGSGSSVNEFRTGIKCGVVKVNIDTDTQFAYVEGVRDYVLKYKDYLMTPVGNPEGADKPNKKKFDPRVWIHEGEKTMTKRVLTALEDFYTVNTL

What follows are binders tested against human glucocorticoid receptor alpha (GRα), expressed in S. pombe (human) (UniProt P04150) (assay: affinity purification with mass spectrometry; anti-GR antibody on epoxy-activated magnetic beads; lysates of S. pombe expressing hGRα (empty vector as control) grown at 30 °C or 39 °C (heat shock 30 min); lysis buffer 250 mM NaCl, 20 mM Tris pH 7.5, 1% Triton X-100, 100 mM potassium acetate; 4 °C, 1 hour, 6 washes; SDS-PAGE and LC-MS/MS).
B1 was tested, and the binding was “binds”.
For B2, the binding was “binds”.
B3 was tested, and the binding was “binds”.
For B4, the binding was “binds”.
With B5 the binding was “binds”.
B6 was tested, and the binding was “binds”.
B7 was tested, and the binding was “binds”.
With B8 the binding was “binds”.
B9 was tested, and the binding was “binds”.
B10 was tested, and the binding was “binds”.
For B11, the binding was “binds”.
For B12, the binding was “binds”.
B13 was tested, and the binding was “binds”.
With B14 the binding was “binds”.
